The source of these data is article PMC13034042.

Protein sequences, listed by entry. Tags and fused reporters are not part of them.
UniProt P0CX44: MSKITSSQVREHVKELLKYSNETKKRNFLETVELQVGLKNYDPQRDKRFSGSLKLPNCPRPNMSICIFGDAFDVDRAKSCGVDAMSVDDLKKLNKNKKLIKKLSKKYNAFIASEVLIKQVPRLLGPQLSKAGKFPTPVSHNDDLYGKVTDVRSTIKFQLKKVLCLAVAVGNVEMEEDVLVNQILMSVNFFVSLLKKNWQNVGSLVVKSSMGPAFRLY
UniProt P14126: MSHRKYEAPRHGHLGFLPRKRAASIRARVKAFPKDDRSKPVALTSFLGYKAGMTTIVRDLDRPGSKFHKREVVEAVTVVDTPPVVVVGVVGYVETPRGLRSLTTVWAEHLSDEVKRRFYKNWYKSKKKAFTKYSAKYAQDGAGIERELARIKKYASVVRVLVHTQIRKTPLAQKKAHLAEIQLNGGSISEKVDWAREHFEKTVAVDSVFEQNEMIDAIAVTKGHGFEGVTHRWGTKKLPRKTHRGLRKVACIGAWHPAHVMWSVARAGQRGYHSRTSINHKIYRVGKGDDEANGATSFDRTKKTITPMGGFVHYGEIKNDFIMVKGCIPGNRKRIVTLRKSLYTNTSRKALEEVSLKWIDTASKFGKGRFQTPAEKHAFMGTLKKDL

Common to all, as to assay: proximity labelling; TurboID-fused bait expressed from a centromeric CUP1-promoter plasmid in S. cerevisiae YDK11-5A; 500 μM copper sulphate and 500 μM biotin for 1 h at 30°C; biotinylated proteins purified on streptavidin agarose and identified by LC-MS/MS; enrichment against the GFP-TurboID and NLS-GFP-TurboID type controls
Assay [1] has as its target TurboID-Rpl1b (S. cerevisiae) (UniProt P0CX44).
For assay [2], the target named is T1, Syo1-TurboID (S. cerevisiae) (UniProt Q07395).
T1 sequence: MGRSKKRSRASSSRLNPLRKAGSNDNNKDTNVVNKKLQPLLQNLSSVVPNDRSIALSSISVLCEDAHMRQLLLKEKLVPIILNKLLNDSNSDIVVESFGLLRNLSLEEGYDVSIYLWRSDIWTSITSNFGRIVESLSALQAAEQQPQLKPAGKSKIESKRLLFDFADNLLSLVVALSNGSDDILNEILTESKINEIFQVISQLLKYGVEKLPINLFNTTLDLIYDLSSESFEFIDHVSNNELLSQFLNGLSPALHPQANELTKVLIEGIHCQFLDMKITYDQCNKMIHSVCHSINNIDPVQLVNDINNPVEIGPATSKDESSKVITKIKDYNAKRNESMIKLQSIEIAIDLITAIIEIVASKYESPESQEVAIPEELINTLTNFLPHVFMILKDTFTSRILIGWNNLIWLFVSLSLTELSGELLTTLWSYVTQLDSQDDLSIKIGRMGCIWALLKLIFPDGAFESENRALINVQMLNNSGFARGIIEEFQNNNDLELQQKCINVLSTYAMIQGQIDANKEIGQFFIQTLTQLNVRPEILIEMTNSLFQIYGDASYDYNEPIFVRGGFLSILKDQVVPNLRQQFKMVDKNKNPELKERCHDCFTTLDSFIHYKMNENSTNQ

In assay [3] the target is T2, TurboID-Syo1 (S. cerevisiae) (UniProt Q07395).
T2 sequence: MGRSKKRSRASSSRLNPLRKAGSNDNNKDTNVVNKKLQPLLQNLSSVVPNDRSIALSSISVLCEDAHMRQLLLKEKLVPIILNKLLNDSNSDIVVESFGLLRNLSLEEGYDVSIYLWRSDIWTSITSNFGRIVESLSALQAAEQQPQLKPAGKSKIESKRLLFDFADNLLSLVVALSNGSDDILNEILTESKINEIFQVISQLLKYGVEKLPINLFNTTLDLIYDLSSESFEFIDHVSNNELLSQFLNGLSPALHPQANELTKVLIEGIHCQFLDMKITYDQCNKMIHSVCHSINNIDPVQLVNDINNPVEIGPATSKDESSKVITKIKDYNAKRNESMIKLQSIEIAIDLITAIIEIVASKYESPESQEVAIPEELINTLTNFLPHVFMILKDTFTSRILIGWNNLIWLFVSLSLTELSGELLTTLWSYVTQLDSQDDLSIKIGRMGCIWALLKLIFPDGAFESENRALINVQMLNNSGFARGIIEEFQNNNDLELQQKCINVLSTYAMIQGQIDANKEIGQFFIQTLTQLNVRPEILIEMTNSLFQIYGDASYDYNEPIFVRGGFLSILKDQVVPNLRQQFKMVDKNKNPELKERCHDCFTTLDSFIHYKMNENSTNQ

The target of assay [4] is Rpl3-TurboID (S. cerevisiae) (UniProt P14126).
Assay [5] has as its target T3, Bcl1-TurboID (S. cerevisiae) (UniProt P53962).
T3 sequence: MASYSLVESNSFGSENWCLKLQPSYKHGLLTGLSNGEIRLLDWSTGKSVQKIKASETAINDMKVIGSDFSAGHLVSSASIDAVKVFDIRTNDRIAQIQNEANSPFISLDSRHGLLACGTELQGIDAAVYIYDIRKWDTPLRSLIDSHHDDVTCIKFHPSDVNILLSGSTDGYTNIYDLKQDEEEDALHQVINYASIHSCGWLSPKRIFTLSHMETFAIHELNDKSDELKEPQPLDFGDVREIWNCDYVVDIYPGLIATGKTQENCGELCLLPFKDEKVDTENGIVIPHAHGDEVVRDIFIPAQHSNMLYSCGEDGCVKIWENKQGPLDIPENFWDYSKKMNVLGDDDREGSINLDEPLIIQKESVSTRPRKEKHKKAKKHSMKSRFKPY

Results are given in words; binding and its absence hold for the method and conditions named. In cells and extracts the contact can be indirect. A yes stands for co-enrichment or nearness to the bait. Other partners may have been found.

B1: Rrs1 (endogenous) (protein, UniProt Q08746 1-203)
chain: MSAEDYKNLPVTVEKPIPVVYDLGNLAAFDSNVLDKNDLDSSNARREEKIKSLTRDNVQLLINQLLSLPMKTTTESVGGTGGQSSVMTLLQLPDPTTDLPREKPLPKAKAMTKWEKFAAKKGIKPKERAGKMIYDEASGEWVPKWGYKGANKKLDDQWLVEVDDKVKGTDNELIDPRTLNRAERKRLVKKNEKQQRRNMKNAL
Take B1: the binding result in assay [1], in assay [2] and in assay [3] was “binds” throughout.

B2: Nog1 (endogenous) (protein, UniProt Q02892 1-647)
chain: MQLSWKDIPTVAPANDLLDIVLNRTQRKTPTVIRPGFKITRIRAFYMRKVKYTGEGFVEKFEDILKGFPNINDVHPFHRDLMDTLYEKNHYKISLAAISRAKSLVEQVARDYVRLLKFGQSLFQCKQLKRAALGRMATIVKKLRDPLAYLEQVRQHIGRLPSIDPNTRTLLICGYPNVGKSSFLRCITKSDVDVQPYAFTTKSLYVGHFDYKYLRFQAIDTPGILDRPTEEMNNIEMQSIYAIAHLRSCVLYFMDLSEQCGFTIEAQVKLFHSIKPLFANKSVMVVINKTDIIRPEDLDEERAQLLESVKEVPGVEIMTSSCQLEENVMEVRNKACEKLLASRIENKLKSQSRINNVLNKIHVAQPQARDDVKRTPFIPESVKNLKKYDPEDPNRRKLARDIEAENGGAGVFNVNLKDKYLLEDDEWKNDIMPEILDGKNVYDFLDPEIAAKLQALEEEEEKLENEGFYNSDDEEEIYDGFEASEVDDIKEKAAWIRNRQKTMIAEARNRKSLKNKAIMPRSKLTKSFGKMEEHMSTLGHDMSALQDKQNRAARKNRYVERGSDVVFGDQDALTASTENGVKLRQTDRLLDGVADGSMRSKADRMAKMERRERNRHAKQGESDRHNAVSLSKHLFSGKRGVGKTDFR
As to B2, the binding result in assay [4] and in assay [5] was “binds” throughout.

B3: Rpf2 (endogenous) (protein, UniProt P36160 1-344)
chain: MIRTVKPKNARAKRALVKREAKLVENVKQALFIPGQSCNKNLHDIMVDLSALKKPDMKRFNRKNDIHPFEDMSPLEFFSEKNDCSLMVLMTSSKKRKNNMTFIRTFGYKIYDMIELMVADNFKLLSDFKKLTFTVGLKPMFTFQGAAFDTHPVYKQIKSLFLDFFRGESTDLQDVAGLQHVISMTIQGDFQDGEPLPNVLFRVYKLKSYKSDQGGKRLPRIELVEIGPRLDFKIGRIHTPSPDMVTEAHKKPKQLEMKTKKNVELDIMGDKLGRIHMGKQDLGKLQTRKMKGLKSKFDQGTEEGDGEVDEDYEDEASYSDDGQEYEEEFVSATDIEPSAKRQKK
On to B3, for which the binding entry in assay [1], in assay [2] and in assay [3] was “binds” throughout.

B4: Noc2 (endogenous) (protein, UniProt P39744 1-710)
chain: MGKVSKSTKKFQSKHLKHTLDQRRKEKIQKKRIQGRRGNKTDQEKADAAGTREQQQLKKSAKEEVFKDMSVETFFEKGIEIPKENKKLKKKTTKEQSDEDSSSSEEEEDMGQSMAKLAEKDPEFYKYLEENDKDLLDFAGTNPLDGIDSQDEGEDAERNSNIEEKSEQMELEKEKIELSLKLVRKWKKQLHDSPSLKLLRNIISAFKVAVNLNKEENIEDYKYAITDEKAFHELMFMVLKDVPQAIQKMAPYKIVKGARTLPNGGNVSRVSSIVKSHAGSLLILLNDITNTETAALVLHSVNELMPYLLSYRRILKELIKSIVGVWSTTRELETQIASFAFLINTTKEFKKSMLETTLKTTYSTFIKSCRKTNMRSMPLINFQKNSAAELFGIDEVLGYQVGFEYIRQLAIHLRNTMNATTKKSSKINSAEAYKIVYNWQFCHSLDFWSRVLSFACQPEKENGSESPLRQLIYPLVQVTLGVIRLIPTPQFFPLRFYLIKSLIRLSQNSGVFIPIYPLLSEILTSTAFTKAPKKSPNLAAFDFEHNIKCTQAYLNTKIYQEGLSEQFVDLLGDYFALYCKNIAFPELVTPVIISLRRYIKTSTNVKLNKRLSTVVEKLNQNSTFIQEKRSDVEFGPTNKSEVSRFLNDVAWNKTPLGSYVAVQREVKEEKARLMRESMEEQDKERETEEAKLLNSLESDDDNEDVEMSDA
Consider B4, for which, in assay [5], the binding entry is “binds”.

B5: Kap104 (endogenous) (protein, UniProt P38217 1-918)
chain: MASTWKPAEDYVLQLATLLQNCMSPNPEIRNNAMEAMENFQLQPEFLNYLCYILIEGESDDVLKQHYSLQDLQNNRATAGMLLKNSMLGGNNLIKSNSHDLGYVKSNIIHGLYNSNNNLVSNVTGIVITTLFSTYYRQHRDDPTGLQMLYQLLELTSNGNEPSIKALSKIMEDSAQFFQLEWSGNTKPMEALLDSFFRFISNPNFSPVIRSESVKCINTVIPLQTQSFIVRLDKFLEIIFQLAQNDENDLVRAQICISFSFLLEFRPDKLVSHLDGIVQFMLHLITTVNEEKVAIEACEFLHAFATSPNIPEHILQPYVKDIVPILLSKMVYNEESIVLLEASNDDDAFLEDKDEDIKPIAPRIVKKKEAGNGEDADDNEDDDDDDDDEDGDVDTQWNLRKCSAATLDVMTNILPHQVMDIAFPFLREHLGSDRWFIREATILALGAMAEGGMKYFNDGLPALIPFLVEQLNDKWAPVRKMTCWTLSRFSPWILQDHTEFLIPVLEPIINTLMDKKKDVQEAAISSVAVFIENADSELVETLFYSQLLTSFDKCLKYYKKKNLIILYDAIGRFAEKCALDETAMQIILPPLIEKWALLSDSDKELWPLLECLSCVASSLGERFMPMAPEVYNRAFRILCHCVELEAKSHQDPTIVVPEKDFIITSLDLIDGLVQGLGAHSQDLLFPQGTKDLTILKIMLECLQDPVHEVRQSCFALLGDIVYFFNSELVIGNLEDFLKLIGTEIMHNDDSDGTPAVINAIWALGLISERIDLNTYIIDMSRIILDLFTTNTQIVDSSVMENLSVTIGKMGLTHPEVFSSGAFANDSNWNKWCLSVNALDDVEEKSSAYMGFLKIINLTSTEVTMSNDTIHKIVTGLSSNVEANVFAQEIYTFLMNHSAQISAINFTPDEISFLQQFTS
Regarding B5, the binding result in assay [2] was “binds”.

B6: Nug1 (endogenous) (protein, UniProt P40010 1-520)
chain: MRVRKRQSRRTSTKLKEGIKKKASAHRKKEKKMAKKDVTWRSRSKKDPGIPSNFPYKAKILEEIEAKKMKDLEERELAKQQRLEARKAAKEQGVDAMDEDMIEDDENGLAALVESAQQAAAEYEGTPSNDADVRDDELDVIDYNIDFYGEDVEGESELEKSRKAYDKIFKSVIDASDVILYVLDARDPESTRSRKVEEAVLQSQGKRLILILNKVDLIPPHVLEQWLNYLKSSFPTIPLRASSGAVNGTSFNRKLSQTTTASALLESLKTYSNNSNLKRSIVVGVIGYPNVGKSSVINALLARRGGQSKACPVGNEAGVTTSLREIKIDNKLKILDSPGICFPSENKKRSKVEHEAELALLNALPAKHIVDPYPAVLMLVKRLAKSDEMTESFKKLYEIPPIPANDADTFTKHFLIHVARKRGRLGKGGIPNLASAGLSVLNDWRDGKILGWVLPNTSAAASQQDKQNLSTINTGTKQAPIAANESTIVSEWSKEFDLDGLFSSLDKAIDASKDQDTMME
For the molecule B6, in assay [5], the binding entry is “binds”.
